Assay results: the supplement of paper PMC12819154, “High-throughput peptide-centric local stability assay extends protein–ligand identification to membrane proteins, tissues and bacteria” (Nature Structural & Molecular Biology, 2025)
This is one part of the list. Most entries show no effect beyond the scatter of the controls.

The chains behind the UniProt entries cited, without tags or fusion partners. Where a name states a change or a piece, a line headed by the entry shows the natural chain unless it says otherwise.
UniProt Q5EBL8: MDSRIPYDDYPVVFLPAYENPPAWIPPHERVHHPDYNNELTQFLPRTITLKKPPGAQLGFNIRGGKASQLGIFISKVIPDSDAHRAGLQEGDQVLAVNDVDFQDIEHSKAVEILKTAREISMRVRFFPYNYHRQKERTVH
UniProt Q5BKX5: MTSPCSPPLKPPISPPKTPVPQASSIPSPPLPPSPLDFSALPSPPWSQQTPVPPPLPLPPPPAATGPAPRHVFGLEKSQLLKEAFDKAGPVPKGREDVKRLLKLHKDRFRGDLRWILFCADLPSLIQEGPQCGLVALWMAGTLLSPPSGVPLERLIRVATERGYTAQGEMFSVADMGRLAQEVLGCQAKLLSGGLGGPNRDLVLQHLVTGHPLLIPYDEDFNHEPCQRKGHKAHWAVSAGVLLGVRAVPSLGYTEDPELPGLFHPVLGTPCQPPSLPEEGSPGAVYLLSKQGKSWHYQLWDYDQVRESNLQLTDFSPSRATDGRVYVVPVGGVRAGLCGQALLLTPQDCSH
UniProt Q5TFE4: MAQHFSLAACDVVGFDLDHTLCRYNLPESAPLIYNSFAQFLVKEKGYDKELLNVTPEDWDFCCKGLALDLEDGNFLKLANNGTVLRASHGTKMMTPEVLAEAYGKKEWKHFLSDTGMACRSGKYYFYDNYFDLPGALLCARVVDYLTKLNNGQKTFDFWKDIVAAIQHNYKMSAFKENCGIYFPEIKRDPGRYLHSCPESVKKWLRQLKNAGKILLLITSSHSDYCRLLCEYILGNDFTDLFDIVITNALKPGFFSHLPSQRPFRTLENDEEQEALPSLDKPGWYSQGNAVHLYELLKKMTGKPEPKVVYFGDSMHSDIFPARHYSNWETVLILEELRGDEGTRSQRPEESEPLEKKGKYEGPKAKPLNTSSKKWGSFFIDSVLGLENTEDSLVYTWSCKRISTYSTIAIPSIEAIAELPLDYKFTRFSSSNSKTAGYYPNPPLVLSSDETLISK
UniProt Q504T8: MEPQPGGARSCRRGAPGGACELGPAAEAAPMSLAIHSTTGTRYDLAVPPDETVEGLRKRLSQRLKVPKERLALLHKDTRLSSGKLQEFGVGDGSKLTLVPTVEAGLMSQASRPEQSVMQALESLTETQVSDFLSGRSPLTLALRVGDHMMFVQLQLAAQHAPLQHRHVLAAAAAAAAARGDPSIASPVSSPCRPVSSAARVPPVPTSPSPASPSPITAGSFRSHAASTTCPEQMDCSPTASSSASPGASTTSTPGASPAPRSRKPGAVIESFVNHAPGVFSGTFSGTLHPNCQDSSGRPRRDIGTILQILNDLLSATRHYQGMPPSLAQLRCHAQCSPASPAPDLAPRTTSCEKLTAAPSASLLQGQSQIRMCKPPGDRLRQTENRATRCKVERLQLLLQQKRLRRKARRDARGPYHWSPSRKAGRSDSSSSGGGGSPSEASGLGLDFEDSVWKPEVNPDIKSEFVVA
UniProt Q5JSZ5: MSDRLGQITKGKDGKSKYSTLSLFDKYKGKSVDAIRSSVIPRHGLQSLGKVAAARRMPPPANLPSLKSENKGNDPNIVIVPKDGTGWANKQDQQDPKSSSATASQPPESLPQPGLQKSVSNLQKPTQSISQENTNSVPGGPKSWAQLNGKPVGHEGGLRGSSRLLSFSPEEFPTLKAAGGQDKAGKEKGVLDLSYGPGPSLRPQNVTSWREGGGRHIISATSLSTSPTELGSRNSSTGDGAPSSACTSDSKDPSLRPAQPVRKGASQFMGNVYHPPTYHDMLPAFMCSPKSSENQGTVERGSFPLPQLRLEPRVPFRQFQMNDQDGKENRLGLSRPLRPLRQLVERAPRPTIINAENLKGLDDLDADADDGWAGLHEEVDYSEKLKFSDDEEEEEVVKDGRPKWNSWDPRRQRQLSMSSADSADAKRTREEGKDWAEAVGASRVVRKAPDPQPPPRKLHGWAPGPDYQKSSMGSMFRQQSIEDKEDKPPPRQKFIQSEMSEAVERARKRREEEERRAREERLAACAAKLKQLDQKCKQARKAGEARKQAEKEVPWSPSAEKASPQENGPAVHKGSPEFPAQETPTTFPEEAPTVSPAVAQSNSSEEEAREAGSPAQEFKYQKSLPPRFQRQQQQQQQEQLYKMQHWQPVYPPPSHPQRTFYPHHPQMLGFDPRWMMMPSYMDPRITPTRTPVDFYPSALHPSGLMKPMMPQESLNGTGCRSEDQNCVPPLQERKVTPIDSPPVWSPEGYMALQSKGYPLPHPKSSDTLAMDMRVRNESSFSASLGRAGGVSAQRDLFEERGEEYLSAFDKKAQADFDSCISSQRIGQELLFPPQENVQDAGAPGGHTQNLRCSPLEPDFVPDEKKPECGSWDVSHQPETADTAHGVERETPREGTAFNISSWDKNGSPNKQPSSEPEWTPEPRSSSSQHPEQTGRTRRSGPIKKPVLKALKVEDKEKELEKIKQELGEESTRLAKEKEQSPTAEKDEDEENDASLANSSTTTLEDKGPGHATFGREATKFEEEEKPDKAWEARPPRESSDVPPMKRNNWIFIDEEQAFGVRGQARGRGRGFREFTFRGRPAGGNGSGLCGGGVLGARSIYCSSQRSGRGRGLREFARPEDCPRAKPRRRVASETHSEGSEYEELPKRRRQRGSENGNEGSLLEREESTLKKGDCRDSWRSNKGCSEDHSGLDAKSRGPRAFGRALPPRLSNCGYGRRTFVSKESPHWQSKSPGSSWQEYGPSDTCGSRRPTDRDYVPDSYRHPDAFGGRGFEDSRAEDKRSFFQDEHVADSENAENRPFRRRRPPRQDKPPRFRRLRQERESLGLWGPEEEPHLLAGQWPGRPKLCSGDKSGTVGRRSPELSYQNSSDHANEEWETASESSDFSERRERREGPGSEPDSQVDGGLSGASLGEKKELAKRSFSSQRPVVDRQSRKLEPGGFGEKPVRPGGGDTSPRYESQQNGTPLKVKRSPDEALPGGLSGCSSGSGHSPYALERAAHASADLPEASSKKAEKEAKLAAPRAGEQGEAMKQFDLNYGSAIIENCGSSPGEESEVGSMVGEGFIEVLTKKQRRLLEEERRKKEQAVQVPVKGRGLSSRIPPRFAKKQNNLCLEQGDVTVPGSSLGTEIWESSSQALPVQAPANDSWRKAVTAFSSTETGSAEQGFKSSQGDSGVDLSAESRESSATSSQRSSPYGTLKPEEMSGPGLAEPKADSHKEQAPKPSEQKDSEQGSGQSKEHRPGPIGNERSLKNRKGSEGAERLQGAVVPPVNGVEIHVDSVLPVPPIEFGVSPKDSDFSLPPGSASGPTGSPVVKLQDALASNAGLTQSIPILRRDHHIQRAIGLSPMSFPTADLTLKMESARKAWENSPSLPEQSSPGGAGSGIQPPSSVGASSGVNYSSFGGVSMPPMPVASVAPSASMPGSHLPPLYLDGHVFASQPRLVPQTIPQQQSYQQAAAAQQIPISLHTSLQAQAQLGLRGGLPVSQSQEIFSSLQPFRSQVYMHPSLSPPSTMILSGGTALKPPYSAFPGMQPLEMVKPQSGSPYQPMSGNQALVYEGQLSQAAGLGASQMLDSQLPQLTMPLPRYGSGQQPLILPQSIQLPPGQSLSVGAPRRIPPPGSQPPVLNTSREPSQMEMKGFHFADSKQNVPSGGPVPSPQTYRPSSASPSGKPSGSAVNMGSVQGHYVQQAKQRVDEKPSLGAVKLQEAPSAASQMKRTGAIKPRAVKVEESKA
UniProt Q5VIY5: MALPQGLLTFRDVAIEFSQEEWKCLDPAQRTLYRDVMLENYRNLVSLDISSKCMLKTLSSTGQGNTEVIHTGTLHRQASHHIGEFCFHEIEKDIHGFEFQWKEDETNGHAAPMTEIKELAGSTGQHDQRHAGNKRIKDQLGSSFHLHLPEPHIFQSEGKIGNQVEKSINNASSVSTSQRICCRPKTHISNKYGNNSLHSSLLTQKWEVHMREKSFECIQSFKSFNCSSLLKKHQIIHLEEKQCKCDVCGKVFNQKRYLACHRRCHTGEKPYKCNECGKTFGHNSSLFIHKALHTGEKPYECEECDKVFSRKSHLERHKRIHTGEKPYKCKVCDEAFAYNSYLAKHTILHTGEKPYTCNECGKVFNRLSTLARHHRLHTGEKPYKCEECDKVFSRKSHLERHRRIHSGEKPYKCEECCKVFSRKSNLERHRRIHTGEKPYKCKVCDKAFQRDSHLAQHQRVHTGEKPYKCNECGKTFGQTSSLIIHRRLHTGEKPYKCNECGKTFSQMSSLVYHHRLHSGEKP
UniProt Q5VWI1: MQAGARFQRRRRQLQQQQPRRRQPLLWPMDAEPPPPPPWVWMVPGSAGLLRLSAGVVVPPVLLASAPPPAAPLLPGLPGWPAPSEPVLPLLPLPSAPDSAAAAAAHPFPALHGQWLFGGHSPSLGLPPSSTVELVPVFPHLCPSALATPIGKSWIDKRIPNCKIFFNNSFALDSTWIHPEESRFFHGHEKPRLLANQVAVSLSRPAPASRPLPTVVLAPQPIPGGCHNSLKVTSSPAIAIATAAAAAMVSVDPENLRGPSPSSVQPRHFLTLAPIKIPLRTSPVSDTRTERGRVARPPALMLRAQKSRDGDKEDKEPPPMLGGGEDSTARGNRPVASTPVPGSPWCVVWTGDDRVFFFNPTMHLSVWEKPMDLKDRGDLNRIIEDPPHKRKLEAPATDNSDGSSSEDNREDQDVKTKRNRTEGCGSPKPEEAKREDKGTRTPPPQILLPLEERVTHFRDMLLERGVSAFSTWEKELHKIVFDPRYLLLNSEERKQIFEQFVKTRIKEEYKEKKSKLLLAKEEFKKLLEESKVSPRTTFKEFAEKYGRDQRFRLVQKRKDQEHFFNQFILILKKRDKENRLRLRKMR
UniProt Q53HC9: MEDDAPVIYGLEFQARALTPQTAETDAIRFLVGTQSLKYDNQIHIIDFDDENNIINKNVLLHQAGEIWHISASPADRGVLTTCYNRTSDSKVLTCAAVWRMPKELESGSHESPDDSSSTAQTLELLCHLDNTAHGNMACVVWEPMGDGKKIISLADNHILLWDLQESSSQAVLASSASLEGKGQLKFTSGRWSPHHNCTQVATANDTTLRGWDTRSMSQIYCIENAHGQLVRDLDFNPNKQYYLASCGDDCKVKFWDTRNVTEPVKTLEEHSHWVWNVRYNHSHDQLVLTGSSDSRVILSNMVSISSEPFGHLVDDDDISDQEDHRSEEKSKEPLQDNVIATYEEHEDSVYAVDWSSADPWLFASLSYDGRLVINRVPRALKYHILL
UniProt Q5U623: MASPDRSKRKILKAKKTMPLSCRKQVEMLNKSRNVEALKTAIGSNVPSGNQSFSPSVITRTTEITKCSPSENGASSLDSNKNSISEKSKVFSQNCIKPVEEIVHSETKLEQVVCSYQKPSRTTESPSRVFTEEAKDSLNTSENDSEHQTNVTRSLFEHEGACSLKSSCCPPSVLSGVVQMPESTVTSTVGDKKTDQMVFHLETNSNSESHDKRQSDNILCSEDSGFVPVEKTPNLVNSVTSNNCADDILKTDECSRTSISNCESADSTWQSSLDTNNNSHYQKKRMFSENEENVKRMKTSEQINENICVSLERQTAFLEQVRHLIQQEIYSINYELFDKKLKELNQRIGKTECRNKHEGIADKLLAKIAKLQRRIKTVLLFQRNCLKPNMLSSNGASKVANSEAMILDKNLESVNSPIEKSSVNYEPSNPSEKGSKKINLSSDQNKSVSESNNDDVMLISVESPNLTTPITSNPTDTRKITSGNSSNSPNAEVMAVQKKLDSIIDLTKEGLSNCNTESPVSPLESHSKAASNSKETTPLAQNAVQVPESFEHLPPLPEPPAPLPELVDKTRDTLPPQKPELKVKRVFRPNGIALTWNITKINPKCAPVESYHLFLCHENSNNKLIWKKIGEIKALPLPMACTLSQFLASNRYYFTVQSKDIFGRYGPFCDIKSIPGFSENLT
UniProt Q5JR12: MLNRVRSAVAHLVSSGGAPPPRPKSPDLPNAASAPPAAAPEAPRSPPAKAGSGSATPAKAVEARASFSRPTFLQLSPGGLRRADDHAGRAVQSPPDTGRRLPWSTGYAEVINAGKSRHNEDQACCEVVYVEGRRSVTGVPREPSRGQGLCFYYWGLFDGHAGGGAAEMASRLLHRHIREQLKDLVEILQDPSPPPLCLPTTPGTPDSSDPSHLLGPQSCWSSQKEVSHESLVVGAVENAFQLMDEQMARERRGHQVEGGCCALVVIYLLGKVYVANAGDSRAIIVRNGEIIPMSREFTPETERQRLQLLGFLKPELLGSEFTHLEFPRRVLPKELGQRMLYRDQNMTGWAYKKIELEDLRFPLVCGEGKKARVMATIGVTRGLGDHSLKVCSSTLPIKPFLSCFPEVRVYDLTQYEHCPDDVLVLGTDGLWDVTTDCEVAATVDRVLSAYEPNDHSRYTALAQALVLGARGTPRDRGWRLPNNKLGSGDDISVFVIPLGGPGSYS
UniProt Q4VC05, whole entry: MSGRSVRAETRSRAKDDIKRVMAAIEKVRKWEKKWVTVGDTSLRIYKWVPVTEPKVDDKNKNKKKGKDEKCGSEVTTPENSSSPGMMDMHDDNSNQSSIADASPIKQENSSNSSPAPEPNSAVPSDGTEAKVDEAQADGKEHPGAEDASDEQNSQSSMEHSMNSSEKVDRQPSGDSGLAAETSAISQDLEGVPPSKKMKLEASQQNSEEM

compound: CN[C@@H]1C[C@H]2O[C@@](C)([C@@H]1OC)n1c3ccccc3c3c4c(c5c6ccccc6n2c5c31)C(=O)NC4 [staurosporine]; experiment: log2 fold change of tryptic peptide abundance, ligand vs vehicle (limited proteolysis) (log2 ratio); higher = more trypsin-susceptible (destabilized); settings: ligand concentration: 20 uM; sample: K562 cleared lysate; digestion: 4 min, 22 C (HT-PELSA RT4min, Orbitrap Astral)

Question: How did the log2 fold change turn out when “CEP162 (peptide sequence: KNEERMFK, peptide start residue: 740) (UniProt Q5TB80)” was run?
Answer: Its log2 fold change is 0.25.

Question: With “LBH (peptide sequence: KDGLSYQIFPDPSDFDRCCK, peptide start residue: 37) (UniProt Q53QV2)” as the target, how does the log2 fold change read?
Answer: Its log2 fold change is -0.711.

Question: “GPATCH4 (peptide sequence: EFTNHWWNELFNK, peptide start residue: 59) (UniProt Q5T3I0)” was tested. Which log2 fold change did it give?
Answer: The log2 fold change was -0.396.

Question: Which log2 fold change does the source give for “PDZD11 (peptide sequence: ASQLGIFISK, peptide start residue: 67) (UniProt Q5EBL8)” here?
Answer: Its log2 fold change is 0.171.

Question: How did the log2 fold change turn out when “C19orf54 (peptide sequence: SWHYQLWDYDQVR, peptide start residue: 294) (UniProt Q5BKX5)” was run?
Answer: The log2 fold change was 0.406.

Question: For “UniProt Q5TEC3 (peptide sequence: EMGSNPHDTNKR, peptide start residue: 38)”, which log2 fold change is on record?
Answer: Its log2 fold change is 0.297.

Question: For “NT5DC1 (peptide sequence: SQRPEESEPLEK, peptide start residue: 345) (UniProt Q5TFE4)”, which log2 fold change is on record?
Answer: The log2 fold change was -0.0814.

Question: Which log2 fold change does the source give for “UniProt Q5T7W7 (peptide sequence: LFVFDER, peptide start residue: 400)” here?
Answer: The log2 fold change was -0.135.

Question: “SNX30 (peptide sequence: STRVEFDLPEYSVR, peptide start residue: 117) (UniProt Q5VWJ9)” was tested. Which log2 fold change did it give?
Answer: Its log2 fold change is 0.822.

Question: “UniProt Q504T8 (peptide sequence: LQLLLQQK, peptide start residue: 395)” was tested. Which log2 fold change did it give?
Answer: Its log2 fold change is 0.336.

Question: With “FAM133B (peptide sequence: EKLLSGSESSSK, peptide start residue: 78) (UniProt Q5BKY9)” as the target, how does the log2 fold change read?
Answer: The log2 fold change was 0.233.

Question: For “UniProt Q5JSZ5 (peptide sequence: EEGKDWAEAVGASR, peptide start residue: 430)”, which log2 fold change is on record?
Answer: The log2 fold change was -0.405.

Question: How did the log2 fold change turn out when “UniProt Q5VIY5 (peptide sequence: ELAGSTGQHDQR, peptide start residue: 118)” was run?
Answer: Its log2 fold change is -0.0372.

Question: Which log2 fold change does the source give for “UniProt Q5VWI1 (peptide sequence: GVSAFSTWEK, peptide start residue: 674)” here?
Answer: The log2 fold change was 0.145.

Question: Which log2 fold change does the source give for “UniProt Q5EBL2 (peptide sequence: SFAQTSNLR, peptide start residue: 574)” here?
Answer: Its log2 fold change is 0.22.

Question: How did the log2 fold change turn out when “UniProt Q53HC9 (peptide sequence: VLTCAAVWR, peptide start residue: 92)” was run?
Answer: Its log2 fold change is -0.192.

Question: Which log2 fold change does the source give for “ATF7IP2 (peptide sequence: NKHEGIADK, peptide start residue: 355) (UniProt Q5U623)” here?
Answer: Its log2 fold change is 0.0492.

Question: “WDR44 (peptide sequence: AAHGFKGPYDFDQIK, peptide start residue: 487) (UniProt Q5JSH3)” was tested. Which log2 fold change did it give?
Answer: The log2 fold change was -0.724.

Question: How did the log2 fold change turn out when “PPM1J (peptide sequence: VMATIGVTR, peptide start residue: 382) (UniProt Q5JR12)” was run?
Answer: Its log2 fold change is -0.0488.

Question: With “UBR4 (peptide sequence: KVQLTPGQTEVK, peptide start residue: 3617) (UniProt Q5T4S7)” as the target, how does the log2 fold change read?
Answer: Its log2 fold change is 0.78.

Question: Which log2 fold change does the source give for “UniProt Q5J8M3 (peptide sequence: TAQGGLVANR, peptide start residue: 2)” here?
Answer: Its log2 fold change is -0.158.

Question: Which log2 fold change does the source give for “ERCC6L2 (peptide sequence: ILEQNISSK, peptide start residue: 880) (UniProt Q5T890)” here?
Answer: Its log2 fold change is 0.385.

Question: “UniProt Q5JVG2 (peptide sequence: IHTGEKPYECSDCGK, peptide start residue: 243)” was tested. Which log2 fold change did it give?
Answer: Its log2 fold change is 0.0438.

Question: “UniProt Q58WW2 (peptide sequence: NTITVPASFMLR, peptide start residue: 818)” was tested. Which log2 fold change did it give?
Answer: The log2 fold change was 0.912.

Question: For “UniProt Q5SVQ8 (peptide sequence: AADLAFLEK, peptide start residue: 851)”, which log2 fold change is on record?
Answer: The log2 fold change was -0.0312.

Question: Which log2 fold change does the source give for “RPRD2 (peptide sequence: EPVGPSSAPPVPPKDHGGIFSR, peptide start residue: 1208) (UniProt Q5VT52)” here?
Answer: The log2 fold change was 0.465.

Question: With “BCL7A (peptide sequence: WVPVTEPK, peptide start residue: 48) (UniProt Q4VC05)” as the target, how does the log2 fold change read?
Answer: Its log2 fold change is 0.182.
